Data taken from article PMC6526285.
Results are given in words; binding and its absence hold for the method and conditions named. In cells and extracts the contact can be indirect. Some results given as binding are weak or reduced against the parent protein; the word gives no strength. Sequences can lack the tags named with a protein.

Target: T1, FLAG-mouse FAM134B-2 (N-terminal-truncated isoform of FAM134B) (mouse) (UniProt Q8VE91)
T1 sequence: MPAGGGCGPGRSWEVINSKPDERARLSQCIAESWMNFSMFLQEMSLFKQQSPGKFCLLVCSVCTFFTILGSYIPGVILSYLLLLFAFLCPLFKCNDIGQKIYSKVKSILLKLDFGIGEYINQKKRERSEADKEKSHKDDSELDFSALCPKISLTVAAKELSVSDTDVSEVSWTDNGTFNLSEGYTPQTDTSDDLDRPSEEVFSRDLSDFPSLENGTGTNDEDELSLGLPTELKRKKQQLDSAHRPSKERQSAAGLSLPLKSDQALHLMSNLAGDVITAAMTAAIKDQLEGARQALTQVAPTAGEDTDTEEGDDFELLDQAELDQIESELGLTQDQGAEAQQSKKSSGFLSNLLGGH
Experiment: co-IP; lysates (2 mg) of transfected HEK293T cells starved with EBSS for 6 h with bafilomycin A1 (1 uM); anti-DYKDDDDK G1 affinity resin overnight at 4 °C; buffer 150 mM NaCl, 1% Nonidet P-40, 50 mM Tris pH 8.0; immunoblot

B1: GFP-ApoCIII (apolipoprotein C-III) (protein, UniProt P33622 21-99)
chain: EEVEGSLLLGSVQGYMEQASKTVQDALSSVQESDIAVVARGWMDNHFRFLKGYWSKFTDKFTGFWDSNPEDQPTPAIES
  binding: binds
